One molecule from patent publication US20150291667A1 can be followed below.

These are yes or no findings as the source states them, for the method shown. Binding calls can cover weak binding; strength is not graded here. Where a sequence is shown, tags or fusion partners need not be part of it.

In test [1] the target is wild-type CdtB-His6 (A. actinomycetemcomitans Y4). Kind of test: assay not given.
Test [2] has the same target. Kind of test: differential dialysis (100 kDa membrane), western blot (FIG. 18C). A general note: Immunoblotting shows a protein as a band on a membrane.

B1: CdtA^C149A,C178A-His6 (protein)
chain: CSSNQRMSDYSQPESQSDLAPKSSTTQFQPQPLLSKASSMPLNLLSSSKNGQVSPSEPSNFMTLMGQNGALLTVWALAKRNWLWAYPNIYSQDFGNIRNWKIEPGKHREYFRFVNQSLGTCIEAYGNGLIHDTASLDKLAQEFELLPTDSGAVVIKSVSQGRAVTYNPVSPTYYSTVTLSTCDGATEPLRDQTWYLAPPVLEATAVNHHHHHHGSGLLTKPRKE
Regarding B1, the binding result in test [1] and in test [2] was “binds” in each case.
